In article PMC3765211 one finds binding data, which are given here for one substance.

By UniProt entry, the sequences of proteins in these tests, tags left out.
UniProt Q8WUY3: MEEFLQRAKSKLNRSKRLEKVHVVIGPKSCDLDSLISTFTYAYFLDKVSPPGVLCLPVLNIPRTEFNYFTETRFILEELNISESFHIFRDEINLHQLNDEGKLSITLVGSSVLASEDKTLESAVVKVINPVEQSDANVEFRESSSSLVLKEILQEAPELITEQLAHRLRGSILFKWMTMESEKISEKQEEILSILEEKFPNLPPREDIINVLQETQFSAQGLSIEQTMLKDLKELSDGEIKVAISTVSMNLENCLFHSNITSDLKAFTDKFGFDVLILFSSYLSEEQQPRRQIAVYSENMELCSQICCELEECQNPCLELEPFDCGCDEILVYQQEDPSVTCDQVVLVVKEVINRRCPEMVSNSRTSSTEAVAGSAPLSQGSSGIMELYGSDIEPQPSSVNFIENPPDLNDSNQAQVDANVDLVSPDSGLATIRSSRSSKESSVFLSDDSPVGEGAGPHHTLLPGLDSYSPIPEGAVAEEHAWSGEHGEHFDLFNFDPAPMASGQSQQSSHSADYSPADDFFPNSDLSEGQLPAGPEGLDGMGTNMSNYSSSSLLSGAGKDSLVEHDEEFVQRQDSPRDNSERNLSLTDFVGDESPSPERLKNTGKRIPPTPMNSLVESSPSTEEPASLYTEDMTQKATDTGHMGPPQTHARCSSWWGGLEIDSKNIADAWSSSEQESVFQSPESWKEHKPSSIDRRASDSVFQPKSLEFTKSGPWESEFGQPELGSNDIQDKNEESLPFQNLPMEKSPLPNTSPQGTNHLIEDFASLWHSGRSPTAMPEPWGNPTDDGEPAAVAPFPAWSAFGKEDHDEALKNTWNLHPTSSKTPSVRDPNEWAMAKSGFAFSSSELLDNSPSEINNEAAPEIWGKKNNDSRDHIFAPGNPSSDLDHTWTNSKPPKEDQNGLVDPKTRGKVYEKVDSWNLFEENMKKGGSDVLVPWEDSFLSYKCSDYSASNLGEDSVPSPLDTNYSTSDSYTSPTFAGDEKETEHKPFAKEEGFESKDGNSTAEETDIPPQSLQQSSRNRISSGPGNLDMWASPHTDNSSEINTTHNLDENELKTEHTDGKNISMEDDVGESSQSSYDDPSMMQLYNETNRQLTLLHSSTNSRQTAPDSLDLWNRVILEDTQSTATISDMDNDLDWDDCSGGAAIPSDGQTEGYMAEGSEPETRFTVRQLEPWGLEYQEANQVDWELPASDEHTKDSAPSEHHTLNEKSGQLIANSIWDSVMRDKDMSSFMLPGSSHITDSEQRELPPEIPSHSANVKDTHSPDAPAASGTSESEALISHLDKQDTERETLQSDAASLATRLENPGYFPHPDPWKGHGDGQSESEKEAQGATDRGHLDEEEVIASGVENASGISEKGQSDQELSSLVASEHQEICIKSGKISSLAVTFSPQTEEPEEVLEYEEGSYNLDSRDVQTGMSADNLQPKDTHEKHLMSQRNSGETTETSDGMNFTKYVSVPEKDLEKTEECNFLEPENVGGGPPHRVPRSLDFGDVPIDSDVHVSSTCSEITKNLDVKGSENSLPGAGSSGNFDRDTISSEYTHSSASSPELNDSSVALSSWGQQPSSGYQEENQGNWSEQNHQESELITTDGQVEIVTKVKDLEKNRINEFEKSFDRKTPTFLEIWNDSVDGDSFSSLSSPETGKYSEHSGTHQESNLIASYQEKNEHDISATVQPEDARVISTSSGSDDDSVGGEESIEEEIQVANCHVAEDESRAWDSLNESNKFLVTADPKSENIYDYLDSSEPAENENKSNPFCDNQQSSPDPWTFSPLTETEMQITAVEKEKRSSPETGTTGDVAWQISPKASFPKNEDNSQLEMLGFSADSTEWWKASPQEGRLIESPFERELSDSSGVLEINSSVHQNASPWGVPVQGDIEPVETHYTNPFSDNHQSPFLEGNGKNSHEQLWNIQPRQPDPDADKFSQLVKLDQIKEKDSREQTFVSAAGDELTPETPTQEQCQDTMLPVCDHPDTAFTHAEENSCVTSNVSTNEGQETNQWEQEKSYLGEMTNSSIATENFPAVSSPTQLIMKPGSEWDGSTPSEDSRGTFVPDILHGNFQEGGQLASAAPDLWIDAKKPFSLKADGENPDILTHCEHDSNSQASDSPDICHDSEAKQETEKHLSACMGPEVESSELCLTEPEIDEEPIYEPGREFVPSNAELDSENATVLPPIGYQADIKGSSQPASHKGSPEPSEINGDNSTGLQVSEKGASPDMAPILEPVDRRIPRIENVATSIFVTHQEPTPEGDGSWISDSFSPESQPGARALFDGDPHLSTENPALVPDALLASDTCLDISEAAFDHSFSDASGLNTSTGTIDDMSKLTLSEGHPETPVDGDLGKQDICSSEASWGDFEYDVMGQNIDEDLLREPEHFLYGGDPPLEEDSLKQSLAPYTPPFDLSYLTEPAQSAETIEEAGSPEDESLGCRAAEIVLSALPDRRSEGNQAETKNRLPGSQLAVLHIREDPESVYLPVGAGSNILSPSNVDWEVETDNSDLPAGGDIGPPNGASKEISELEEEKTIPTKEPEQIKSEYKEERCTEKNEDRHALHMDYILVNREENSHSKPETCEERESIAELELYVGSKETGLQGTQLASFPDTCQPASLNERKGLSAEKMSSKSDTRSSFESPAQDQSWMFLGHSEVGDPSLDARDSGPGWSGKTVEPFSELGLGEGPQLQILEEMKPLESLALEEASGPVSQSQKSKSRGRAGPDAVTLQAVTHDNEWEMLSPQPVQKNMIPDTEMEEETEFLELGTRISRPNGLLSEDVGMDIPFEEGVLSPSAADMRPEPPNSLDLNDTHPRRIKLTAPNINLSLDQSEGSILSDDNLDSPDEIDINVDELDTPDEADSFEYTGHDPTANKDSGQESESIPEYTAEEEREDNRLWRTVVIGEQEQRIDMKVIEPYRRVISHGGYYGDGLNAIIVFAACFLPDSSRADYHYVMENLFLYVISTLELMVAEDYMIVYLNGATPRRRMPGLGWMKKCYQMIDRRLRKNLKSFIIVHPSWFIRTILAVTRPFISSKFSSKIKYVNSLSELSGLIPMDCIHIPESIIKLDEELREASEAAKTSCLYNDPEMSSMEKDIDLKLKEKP
UniProt P63010: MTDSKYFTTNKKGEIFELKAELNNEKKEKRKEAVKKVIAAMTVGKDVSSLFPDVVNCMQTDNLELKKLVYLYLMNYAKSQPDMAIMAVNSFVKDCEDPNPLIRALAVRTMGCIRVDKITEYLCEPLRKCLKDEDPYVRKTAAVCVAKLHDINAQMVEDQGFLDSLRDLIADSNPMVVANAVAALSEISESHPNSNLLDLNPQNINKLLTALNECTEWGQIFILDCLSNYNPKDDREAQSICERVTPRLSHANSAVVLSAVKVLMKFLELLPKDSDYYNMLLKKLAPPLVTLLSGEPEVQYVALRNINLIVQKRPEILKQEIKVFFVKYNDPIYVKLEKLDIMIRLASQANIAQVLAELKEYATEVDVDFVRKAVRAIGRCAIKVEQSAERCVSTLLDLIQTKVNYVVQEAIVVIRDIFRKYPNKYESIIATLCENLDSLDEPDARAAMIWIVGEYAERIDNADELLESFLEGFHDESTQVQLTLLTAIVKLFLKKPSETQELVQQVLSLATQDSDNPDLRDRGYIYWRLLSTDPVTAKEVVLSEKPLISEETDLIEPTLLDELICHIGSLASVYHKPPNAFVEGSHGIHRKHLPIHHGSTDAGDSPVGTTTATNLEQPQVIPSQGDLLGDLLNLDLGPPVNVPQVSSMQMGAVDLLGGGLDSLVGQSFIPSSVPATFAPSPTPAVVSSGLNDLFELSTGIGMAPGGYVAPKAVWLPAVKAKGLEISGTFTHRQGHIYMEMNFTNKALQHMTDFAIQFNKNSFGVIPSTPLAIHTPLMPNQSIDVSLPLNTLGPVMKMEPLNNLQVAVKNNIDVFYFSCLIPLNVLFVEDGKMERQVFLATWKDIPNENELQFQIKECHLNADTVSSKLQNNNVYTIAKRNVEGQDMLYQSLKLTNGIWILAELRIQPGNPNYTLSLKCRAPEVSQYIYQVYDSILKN

Results are given in words; binding and its absence hold for the method and conditions named. In cells and extracts the contact can be indirect. Some binding calls cover weakened binding; strength is not graded here.

The target of the experiment is BMCC1-1 protein (340 kDa BMCC1) (human (endogenous in LNCaP)) (UniProt Q8WUY3). Kind of experiment: co-IP; endogenous BMCC1 immunoprecipitated with sheep anti-BMCC1 Ab-4 from LNCaP total lysate overnight, protein G agarose; blots for β-adaptin and AP2A1/2; also from cells transfected with control siRNA or BMCC1 siRNA.

For the substance “AP-2B1/β-adaptin (from UniProt P63010 1-937)”, the binding result is listed as “binds”.
